# The list shows a part of the results.
# System: T1, CTL2-GFP (C. trachomatis L2/434/Bu, GFP-expressing)
# T1 construct: L2/434/Bu, GFP-expressing
# Design: species or system HeLa; Intracellular C. trachomatis growth in HeLa cells, bulk GFP fluorescence relative to DMSO
# Conditions: bulk GFP, single well; 28.5 h, 10 µM; inhibitor
row,Structure (SMILES),% of control remaining [%]
1,c1coc(CNc2c(-c3ccco3)nc3cnccn23)c1 [CBK283496],105.566
2,Cc1ccccc1/N=C1/NC(=O)/C(=C/c2ccc([N+](=O)[O-])o2)S1 [CBK094584],116.096
3,O=C(O)c1ccc(-n2nnnc2SCc2ccc(F)cc2)cc1 [CBK287229],130.374
4,CCc1c(C(=O)Nc2ccc(C(F)(F)F)cc2)cnc2ncnn12 [CBK291244],159.333
5,CN(C)CC(C)(C)CNC(=O)c1cnc2cc(Cl)ccc2c1O [CBK107357],162.77
6,CCn1ncc(CN[C@@H]2CCC(=O)N[C@H]2c2cc(F)cc(F)c2)c1C [CBK282914],110.889
7,CCOC(=O)c1c(NC(=O)CCN2C(=O)c3cccc4cccc(c34)C2=O)sc2c1CCC2 [CBK262982],98.0302
8,O=C(NCc1ccc(OC2CCNCC2)cc1)c1ccccn1 [CBK036361T],121.237
9,CSc1ncc(CNCc2ccc3c(c2)OCO3)c(N)n1 [CBK074563],97.4218
10,CC(=O)CCc1cc(CCC(N)=O)on1 [CBK023350],143.225
11,CCCn1c(-c2ccccc2OC(F)(F)F)n[nH]c1=O [CBK074238],118.678
12,NC(=O)CCNC(=O)C1(c2ccccc2)CCCC1 [CBK160929],134.777
13,CC(C)c1ccc(/C=C2\CCCc3c2nc2ccccc2c3C(=O)O)cc1 [CBK299777],168.899
14,CCOC(=O)C1CSCCN1C(=O)c1ccc(-c2cnco2)cc1 (centres unmarked) [CBK304208],59.0804
15,O=C1CC2(CCCC2)C(=O)N1CCNc1nccc(C(F)(F)F)n1 [CBK028777],124.158
16,CCc1cc(CNC(=O)C(c2ccc(F)cc2)N(C)C)on1 (centres unmarked) [CBK281648],144.136
17,CCCOc1ccc(C(=O)NCc2ccccn2)cc1 [CBK269789],160.963
18,O=C1NCC2(C/C=C/CCOc3ccccc31)CCNCC2 [CBK292178],101.383
19,O=C(CCn1c(=O)oc2ccccc21)Nc1ccncc1 [CBK287466],148.01
20,O=C(NCc1nnc(-c2cccs2)o1)c1cccc2ccccc12 [CBK284636],136.97
21,Clc1ccc(C2(N3CCC(N4CCOCC4)CC3)CC2)cc1 [CBK282722],138.145
22,Nc1nnnn1CC(=O)N/N=C/c1cc2c(cc1[N+](=O)[O-])OCO2 [CBK262187],106.419
23,O=C1N=C(NCc2ccccc2F)OC12CCN(Cc1ccccc1)CC2 [CBK115688],110.907
24,CCCCCn1c(=O)c(Cc2ccccc2)c(O)c2ccccc21 [CBK291233],132.381
25,COc1cccc(CCN2C(=O)CC3(C2=O)C(=O)N(C)c2ccc(OC)cc23)c1 (centres unmarked) [CBK075191],105.033
26,CC(=O)N1CCC(NC(=O)c2cccc(C(N)=O)c2)CC1 [CBK297747],107.922
27,C=C(C)Cn1c(Cc2ccccc2)nnc1SC(C)C [CBK200083],98.0167

row,Structure (SMILES),% of control remaining [%]
1,O=C(c1c(-c2ccccc2)nnc2ccccc12)N1CCN(CCO)CC1 [CBK066882],128.027
2,CN1CCC(N2CCN(C(=O)NC3CCc4ccccc43)CC2)CC1 (centres unmarked) [CBK156110],141.842
3,c1nc(NCCCN2CCOCC2)c2c3c(sc2n1)CCCCC3 [CBK268236],151.454
4,O=C(N[C@H]1CCN(Cc2ccccc2)C1)c1cnc(-c2ccccc2)c(-c2ccncc2)c1 [CBK036639],178.883
5,COc1ccc(-c2noc(CN(C(=O)Cc3ccc(C)cc3)C(C)C)n2)cc1 [CBK269774],99.3137
6,O=C(OCCN1CCOCC1)N1CCN(c2ccccc2)CC1 [CBK200242],124.985
7,CCn1c(C)nc2cc(NC(=O)c3c4c(nn3C)CCCC4)ccc21 [CBK281831],123.964
8,CCOc1ccc(/C=C2/NC(=O)NC2=O)cc1Br [CBK098031],156.029
9,CCCCOc1ccc(OC(=O)COCCOCCN2C(=O)c3ccccc3C2=O)cc1 [CBK155584],111.182
10,Cc1nc2ccc(C(=O)NCCCN3CC(C)CC(C)C3)cc2[nH]1 (centres unmarked) [CBK283298],107.102
11,c1ccc2[nH]c(CN3CCC[C@@H]3CN3CCCC3)nc2c1 [CBK149102],119.224
12,Cc1cc(NC(=O)C(C)N2CCN(S(=O)(=O)c3ccc(C4CCCCC4)cc3)CC2)on1 (centres unmarked) [CBK295639],80.8085
13,CCN1CCN(C(=O)CN(C)S(=O)(=O)c2ccc(OC)c(Cl)c2)CC1 [CBK268091],124.521
14,O=C(O)CCCCCN1C(=O)/C(=C/c2ccc(O)cc2)SC1=S [CBK262835],100
15,Cc1cc2c(o1)c1cnn(CC(=O)N(C)C)c(=O)c1n2C(C)C [CBK284233],144.728
16,COc1ccc(Cn2nc(N)c3ccccc32)cc1 [CBK093530],106.738
17,CC(C(=O)NCCc1cn(C)c2ccc(Cl)cc12)N1CCOCC1 (centres unmarked) [CBK282263],149.148
18,COc1ccc(OC)c(-n2nnnc2SCC2CCCN(C)C2)c1 (centres unmarked) [CBK305386],115.421
19,c1coc(CNc2c(-c3cccs3)nc3cnccn23)c1 [CBK283540],125.888
20,O=C(O)c1cccc(S(=O)(=O)Nc2nc3ccc(Cl)cc3s2)c1 [CBK299793],124.778
21,Cc1ccc(SCC(=O)Nc2ccc(O)cc2C(=O)O)cc1 [CBK131703],92.5967
22,COc1ccc(Nc2nnc(-c3ccc(C(=O)NCCO)cc3)c3ccccc23)cc1 [CBK263735],127.083
23,CC(C)NC(=O)C1CC2CCC1(C)C[C@]21NC(=O)c2ccccc2N1 (some centres unmarked) [CBK284444],143.607
24,CCn1c(SCC(=O)N/N=C/C(C)=C/c2ccccc2)nc2ccccc21 [CBK263178],79.6848
25,O=C(Nc1ccccc1C(F)(F)F)N(Cc1ccccc1C(F)(F)F)CC1CCNCC1 [CBK049744],80.706
26,Cc1nc(C(F)(F)F)ccc1C(=O)Nc1nc(CC(N)=O)cs1 [CBK305776],106.967
27,Nc1ccccc1CC(c1c[nH]c2ccccc12)c1c[nH]c2ccccc12 [CBK261780],94.2298

row,Structure (SMILES),% of control remaining [%]
1,Cc1ccccc1OCC(O)CN1CCCC(C(F)(F)F)C1 (centres unmarked) [CBK304873],125.156
2,Clc1ccc(CN2CCCN(c3nccc(OCC4COc5ccccc5O4)n3)CC2)cc1Cl (centres unmarked) [CBK083967],109.514
3,O=S1(=O)N=C(c2cccs2)C=C(C(F)(F)F)N1 [CBK019309],92.0705
4,COc1ccc(N(CC(=O)Nc2cccnc2)S(=O)(=O)c2ccccc2)cc1 [CBK262236],108.718
5,COc1ccc(C(=O)N2CCC3(CCCN(C(=O)c4ccc5ncccc5c4)C3)C2)cc1OC (centres unmarked) [CBK131656],111.322
6,FC(F)(F)c1ccnc(Sc2cccc(Cl)c2)c1 [CBK115234],105.587
7,COCCN(C)c1ccc(C(=O)N2CCC(N3CCOCC3)CC2)cn1 [CBK306851],103.668
8,CC(C)(C)CC(C)(C)NC(=S)Nc1ccc2nc(-c3ccccn3)c(-c3ccccn3)nc2c1 [CBK265118],51.8079
9,CC1(C)[C@H](Cc2cc(CC3CCCCC3)on2)C[C@@H]1NC(=O)N1CCOCC1 [CBK289258],129.783
10,CC(=O)NCc1ccc(-c2ccc(C(=O)NCc3ccc4[nH]c(C)c(C)c4c3)c(C)n2)cc1 [CBK285888],148.46
11,O=C1CC(c2ccc(C(=O)O)cc2)c2c(-c3ccc(Cl)cc3)n[nH]c2N1 (centres unmarked) [CBK286684],128.458
12,Cc1cc(=O)c2ccccc2n1CC(=O)N1CCOC2(CCCC2)C1 [CBK306811],110.599
13,CC(=O)Nc1ccc(CNC(=O)CN(C)Cc2cccc(O)c2)cc1 [CBK307660],130.214
14,OCCN(Cc1ccccc1)Cc1ccc(-c2ccccc2)cc1 [CBK261883],119.534
15,CSCCC(C(=O)O)N1C(=O)C(=Cc2ccc(-c3cccc(Cl)c3)o2)SC1=S (centres unmarked) [CBK296982],140.152
16,Nc1ccccc1Sc1nc2ccccc2nc1C(F)(F)F [CBK093776],125.912
17,O=S(=O)(c1cccs1)n1ccc2c(CN3CCCC3)cccc21 [CBK116195T],96.6416
18,COCC(=O)NC(Cc1ccsc1)c1nc(C)c(C)s1 (centres unmarked) [CBK284773],150.37
19,O=C(O)COc1ccc(S(=O)(=O)N2CCc3ccccc32)cc1 [CBK269882],118.889
20,CN(C)Cc1nc(C(=O)N2CCn3nc(C(O)C4CC4)cc3C2)cs1 (centres unmarked) [CBK307489],124.03
21,Cc1ccc(C2(C(=O)NC(C)c3ccccn3)CCOCC2)cc1 (centres unmarked) [CBK281903],82.3111
22,CCn1cc(C(=O)O)c(=O)c2cc(F)c(N3CCN(S(=O)(=O)c4ccc(C)cc4)CC3)cc21 [CBK265122],164.281
23,COc1cc(CNc2cc(-c3ccco3)ncn2)cc(OC)c1OC [CBK091181],140.16
24,O=C(O)c1cc(C=Cc2cn(Cc3ccccc3)nc2-c2cccnc2)nc2ccccc12 [CBK296988],124.048
25,COc1ccc(CNC(=O)CN2CCCCC2Cn2cccn2)cc1 (centres unmarked) [CBK305379],108.964
26,O=C(NCc1nnc(-c2cccs2)o1)C(c1ccccc1)c1ccccc1 [CBK286294],98.6804

# As entered above.
# Value for `O=C(O)CCCCCN1C(=O)/C(=C/c2ccc(O)cc2)SC1=S` [CBK262835] under % of control remaining [%]: 100
# Value for `O=C(NCc1nnc(-c2cccs2)o1)C(c1ccccc1)c1ccccc1` [CBK286294] under % of control remaining [%]: 98.6804
# Value for `CCOc1ccc(/C=C2/NC(=O)NC2=O)cc1Br` [CBK098031] under % of control remaining [%]: 156.029
# Value for `O=C(c1c(-c2ccccc2)nnc2ccccc12)N1CCN(CCO)CC1` [CBK066882] under % of control remaining [%]: 128.027

# Reference: publication PMC12040169 (PLOS Biology, 2025)
